Test results taken from publication doi:10.1101/2020.01.24.918458.
Results are given in words; binding and its absence hold for the method and conditions named. Binding seen in cells or lysates may run through a third protein. These calls come from enrichment with a bait or labelling near it, and not all partners need be listed. For part of these data: A no says only that the protein was not detected with the bait.

Chains of the proteins cited; added tags and fusions are not shown.
UniProt Q8VI36: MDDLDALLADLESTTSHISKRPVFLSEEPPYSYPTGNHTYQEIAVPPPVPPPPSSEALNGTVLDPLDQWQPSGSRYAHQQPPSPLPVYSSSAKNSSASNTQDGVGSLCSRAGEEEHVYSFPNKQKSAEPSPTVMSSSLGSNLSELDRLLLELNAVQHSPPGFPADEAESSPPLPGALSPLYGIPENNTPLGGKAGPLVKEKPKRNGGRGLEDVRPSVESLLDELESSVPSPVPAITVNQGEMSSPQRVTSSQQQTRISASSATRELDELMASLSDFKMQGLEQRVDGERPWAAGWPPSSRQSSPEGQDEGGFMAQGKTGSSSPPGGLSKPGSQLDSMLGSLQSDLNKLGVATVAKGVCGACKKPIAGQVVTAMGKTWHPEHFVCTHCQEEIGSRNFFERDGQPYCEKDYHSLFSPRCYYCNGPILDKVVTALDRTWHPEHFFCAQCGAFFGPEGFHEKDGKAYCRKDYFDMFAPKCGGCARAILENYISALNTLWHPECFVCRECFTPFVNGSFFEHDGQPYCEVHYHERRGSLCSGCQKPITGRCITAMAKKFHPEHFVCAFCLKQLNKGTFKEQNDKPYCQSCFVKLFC
UniProt Q99JW4: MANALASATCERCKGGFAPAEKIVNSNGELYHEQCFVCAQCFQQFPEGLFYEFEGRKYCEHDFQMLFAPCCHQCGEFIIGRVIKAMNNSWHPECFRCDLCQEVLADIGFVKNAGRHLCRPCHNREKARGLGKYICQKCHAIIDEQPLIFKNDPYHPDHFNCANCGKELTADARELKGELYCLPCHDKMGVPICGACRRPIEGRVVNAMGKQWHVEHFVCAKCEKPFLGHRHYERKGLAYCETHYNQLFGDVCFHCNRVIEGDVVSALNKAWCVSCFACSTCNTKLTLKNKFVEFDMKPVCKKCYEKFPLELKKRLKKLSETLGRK
UniProt Q80TH2: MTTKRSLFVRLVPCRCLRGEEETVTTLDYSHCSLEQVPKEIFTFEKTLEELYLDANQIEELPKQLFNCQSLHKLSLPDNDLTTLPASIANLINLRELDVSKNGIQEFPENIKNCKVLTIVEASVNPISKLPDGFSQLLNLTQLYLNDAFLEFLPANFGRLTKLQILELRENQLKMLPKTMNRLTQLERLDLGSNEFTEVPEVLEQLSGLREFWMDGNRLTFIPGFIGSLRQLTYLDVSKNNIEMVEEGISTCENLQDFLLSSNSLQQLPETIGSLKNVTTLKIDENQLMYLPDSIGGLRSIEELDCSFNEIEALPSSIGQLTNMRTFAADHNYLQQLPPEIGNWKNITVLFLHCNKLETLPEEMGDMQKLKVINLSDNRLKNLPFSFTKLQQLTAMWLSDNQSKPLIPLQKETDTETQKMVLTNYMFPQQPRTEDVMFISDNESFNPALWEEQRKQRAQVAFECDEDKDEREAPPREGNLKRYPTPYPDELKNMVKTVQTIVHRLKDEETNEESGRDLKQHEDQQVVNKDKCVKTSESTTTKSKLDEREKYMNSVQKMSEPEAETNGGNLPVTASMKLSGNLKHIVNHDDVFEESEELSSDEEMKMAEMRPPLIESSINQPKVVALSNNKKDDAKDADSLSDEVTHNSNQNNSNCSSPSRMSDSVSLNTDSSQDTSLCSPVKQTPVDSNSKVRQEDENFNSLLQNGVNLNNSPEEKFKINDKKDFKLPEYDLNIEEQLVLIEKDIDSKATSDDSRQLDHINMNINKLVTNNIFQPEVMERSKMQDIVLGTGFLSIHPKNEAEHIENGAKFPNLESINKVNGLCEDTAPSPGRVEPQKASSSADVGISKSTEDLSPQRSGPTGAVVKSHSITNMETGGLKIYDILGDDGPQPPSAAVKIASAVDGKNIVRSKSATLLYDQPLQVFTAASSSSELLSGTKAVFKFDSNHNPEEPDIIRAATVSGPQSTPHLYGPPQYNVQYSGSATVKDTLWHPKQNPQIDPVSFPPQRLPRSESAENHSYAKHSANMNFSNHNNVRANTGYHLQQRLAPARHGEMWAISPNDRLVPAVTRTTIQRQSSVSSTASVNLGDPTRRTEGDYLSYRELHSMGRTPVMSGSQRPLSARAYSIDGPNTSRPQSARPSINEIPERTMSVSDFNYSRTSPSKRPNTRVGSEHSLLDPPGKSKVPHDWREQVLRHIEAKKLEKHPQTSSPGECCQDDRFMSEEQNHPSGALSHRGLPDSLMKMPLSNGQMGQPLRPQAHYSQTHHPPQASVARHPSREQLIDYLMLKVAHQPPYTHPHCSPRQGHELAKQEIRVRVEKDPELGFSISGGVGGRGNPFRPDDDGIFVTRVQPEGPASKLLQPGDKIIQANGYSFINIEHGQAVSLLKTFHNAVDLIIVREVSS
UniProt Q80U72: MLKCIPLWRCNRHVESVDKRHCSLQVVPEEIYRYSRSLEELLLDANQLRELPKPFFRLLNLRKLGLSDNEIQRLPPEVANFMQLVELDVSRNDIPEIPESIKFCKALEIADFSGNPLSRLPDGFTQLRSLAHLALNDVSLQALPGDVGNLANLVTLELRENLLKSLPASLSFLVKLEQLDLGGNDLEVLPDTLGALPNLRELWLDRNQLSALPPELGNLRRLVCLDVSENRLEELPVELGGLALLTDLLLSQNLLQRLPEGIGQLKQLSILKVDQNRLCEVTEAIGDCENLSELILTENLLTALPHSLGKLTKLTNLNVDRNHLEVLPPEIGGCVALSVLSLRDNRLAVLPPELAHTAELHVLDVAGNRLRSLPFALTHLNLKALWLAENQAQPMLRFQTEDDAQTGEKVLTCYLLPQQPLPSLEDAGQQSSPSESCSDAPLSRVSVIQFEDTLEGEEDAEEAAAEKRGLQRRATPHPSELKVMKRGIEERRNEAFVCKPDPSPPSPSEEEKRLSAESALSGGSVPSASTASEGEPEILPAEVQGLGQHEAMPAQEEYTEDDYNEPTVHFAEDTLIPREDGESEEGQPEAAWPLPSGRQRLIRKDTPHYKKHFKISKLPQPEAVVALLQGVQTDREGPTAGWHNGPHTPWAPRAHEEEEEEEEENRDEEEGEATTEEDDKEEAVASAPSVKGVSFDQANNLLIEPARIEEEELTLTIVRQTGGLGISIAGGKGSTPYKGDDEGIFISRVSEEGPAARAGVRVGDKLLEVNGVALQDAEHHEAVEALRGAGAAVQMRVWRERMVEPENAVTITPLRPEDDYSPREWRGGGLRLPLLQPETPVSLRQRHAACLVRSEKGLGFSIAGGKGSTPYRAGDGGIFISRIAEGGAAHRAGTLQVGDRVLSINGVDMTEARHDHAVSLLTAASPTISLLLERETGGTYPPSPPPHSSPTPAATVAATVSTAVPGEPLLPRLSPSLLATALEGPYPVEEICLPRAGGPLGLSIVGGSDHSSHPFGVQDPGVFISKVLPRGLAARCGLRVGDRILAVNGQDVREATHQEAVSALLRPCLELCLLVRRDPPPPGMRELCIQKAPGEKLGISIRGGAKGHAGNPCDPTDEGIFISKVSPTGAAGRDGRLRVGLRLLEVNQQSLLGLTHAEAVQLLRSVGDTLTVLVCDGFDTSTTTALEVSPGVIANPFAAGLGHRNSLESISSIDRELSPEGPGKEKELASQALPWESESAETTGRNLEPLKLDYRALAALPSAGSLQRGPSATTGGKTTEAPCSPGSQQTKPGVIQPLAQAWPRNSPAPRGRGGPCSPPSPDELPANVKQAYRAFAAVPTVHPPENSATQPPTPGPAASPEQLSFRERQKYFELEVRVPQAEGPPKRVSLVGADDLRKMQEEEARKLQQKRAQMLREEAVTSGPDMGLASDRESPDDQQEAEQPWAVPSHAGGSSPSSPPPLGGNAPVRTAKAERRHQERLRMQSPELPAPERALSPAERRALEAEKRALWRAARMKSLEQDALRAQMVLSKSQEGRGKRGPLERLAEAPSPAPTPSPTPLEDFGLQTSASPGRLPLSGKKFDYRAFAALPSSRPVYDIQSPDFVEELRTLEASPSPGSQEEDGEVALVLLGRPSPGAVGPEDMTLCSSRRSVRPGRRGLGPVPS
UniProt P26039: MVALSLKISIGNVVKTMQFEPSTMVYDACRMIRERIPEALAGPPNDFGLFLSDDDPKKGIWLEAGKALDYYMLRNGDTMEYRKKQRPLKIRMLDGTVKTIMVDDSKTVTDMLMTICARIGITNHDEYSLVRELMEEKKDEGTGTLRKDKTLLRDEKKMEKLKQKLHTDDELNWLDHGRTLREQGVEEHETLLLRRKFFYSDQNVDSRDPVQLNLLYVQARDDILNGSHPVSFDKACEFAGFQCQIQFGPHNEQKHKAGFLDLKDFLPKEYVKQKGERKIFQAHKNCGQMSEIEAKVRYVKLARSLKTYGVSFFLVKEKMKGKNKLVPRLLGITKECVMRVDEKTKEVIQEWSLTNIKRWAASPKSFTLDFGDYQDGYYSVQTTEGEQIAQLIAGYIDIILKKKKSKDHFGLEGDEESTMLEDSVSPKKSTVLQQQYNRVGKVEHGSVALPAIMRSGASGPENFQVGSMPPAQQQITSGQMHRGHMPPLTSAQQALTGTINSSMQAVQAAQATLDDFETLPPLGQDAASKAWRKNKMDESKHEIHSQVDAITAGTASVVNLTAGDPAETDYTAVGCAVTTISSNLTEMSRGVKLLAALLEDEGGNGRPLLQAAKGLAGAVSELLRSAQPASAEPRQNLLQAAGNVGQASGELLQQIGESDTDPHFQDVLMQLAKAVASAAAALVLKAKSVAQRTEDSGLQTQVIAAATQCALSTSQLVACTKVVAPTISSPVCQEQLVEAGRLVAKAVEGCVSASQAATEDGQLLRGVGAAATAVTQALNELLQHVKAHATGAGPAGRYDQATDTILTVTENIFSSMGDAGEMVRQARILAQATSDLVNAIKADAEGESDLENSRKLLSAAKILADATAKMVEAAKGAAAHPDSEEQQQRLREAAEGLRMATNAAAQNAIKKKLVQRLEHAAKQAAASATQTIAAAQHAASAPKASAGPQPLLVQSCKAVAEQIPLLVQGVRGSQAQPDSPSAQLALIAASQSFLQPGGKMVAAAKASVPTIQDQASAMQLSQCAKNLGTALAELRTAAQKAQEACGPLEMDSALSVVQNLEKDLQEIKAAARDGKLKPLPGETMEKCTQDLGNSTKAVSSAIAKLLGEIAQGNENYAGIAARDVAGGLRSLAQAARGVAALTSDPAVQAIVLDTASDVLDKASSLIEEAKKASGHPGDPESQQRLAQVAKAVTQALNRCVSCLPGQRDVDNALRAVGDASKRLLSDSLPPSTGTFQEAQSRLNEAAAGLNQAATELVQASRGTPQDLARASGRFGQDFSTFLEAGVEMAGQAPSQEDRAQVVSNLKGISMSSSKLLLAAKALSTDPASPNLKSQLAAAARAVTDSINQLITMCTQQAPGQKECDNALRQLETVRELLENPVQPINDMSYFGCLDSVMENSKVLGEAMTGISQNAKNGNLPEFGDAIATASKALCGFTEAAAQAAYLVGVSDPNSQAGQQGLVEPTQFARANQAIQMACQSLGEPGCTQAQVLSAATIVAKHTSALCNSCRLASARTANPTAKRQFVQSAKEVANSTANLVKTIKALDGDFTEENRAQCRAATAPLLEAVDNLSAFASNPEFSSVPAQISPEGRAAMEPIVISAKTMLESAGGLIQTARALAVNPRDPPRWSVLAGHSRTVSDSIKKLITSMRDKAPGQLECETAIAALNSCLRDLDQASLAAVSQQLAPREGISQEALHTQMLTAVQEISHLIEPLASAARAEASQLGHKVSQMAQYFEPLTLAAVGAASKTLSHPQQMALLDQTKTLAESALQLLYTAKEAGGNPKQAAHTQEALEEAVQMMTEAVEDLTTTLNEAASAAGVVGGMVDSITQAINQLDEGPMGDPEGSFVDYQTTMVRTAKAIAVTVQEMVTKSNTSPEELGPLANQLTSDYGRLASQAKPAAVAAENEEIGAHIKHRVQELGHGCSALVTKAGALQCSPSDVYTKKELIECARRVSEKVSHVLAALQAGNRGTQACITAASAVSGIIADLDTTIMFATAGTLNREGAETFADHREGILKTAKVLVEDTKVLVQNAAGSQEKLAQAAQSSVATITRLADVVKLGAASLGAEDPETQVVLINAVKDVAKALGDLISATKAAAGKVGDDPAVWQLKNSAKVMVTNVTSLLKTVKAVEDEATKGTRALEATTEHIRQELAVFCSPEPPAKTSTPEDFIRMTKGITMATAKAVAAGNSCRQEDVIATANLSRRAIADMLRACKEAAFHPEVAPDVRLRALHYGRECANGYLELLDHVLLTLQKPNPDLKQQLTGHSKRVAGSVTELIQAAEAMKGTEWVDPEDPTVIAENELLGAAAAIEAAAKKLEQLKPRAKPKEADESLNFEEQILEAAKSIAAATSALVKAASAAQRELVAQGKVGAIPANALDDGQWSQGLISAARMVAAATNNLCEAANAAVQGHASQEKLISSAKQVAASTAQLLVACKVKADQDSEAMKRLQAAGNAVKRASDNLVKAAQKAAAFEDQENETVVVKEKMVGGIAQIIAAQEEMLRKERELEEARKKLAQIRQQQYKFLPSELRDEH

Legend:
Assay in all cases: proximity labelling
[1] = molecular target: T1, p130Cas (not stated (mouse and non-mouse baits used)) (UniProt Q61140)
T1 sequence: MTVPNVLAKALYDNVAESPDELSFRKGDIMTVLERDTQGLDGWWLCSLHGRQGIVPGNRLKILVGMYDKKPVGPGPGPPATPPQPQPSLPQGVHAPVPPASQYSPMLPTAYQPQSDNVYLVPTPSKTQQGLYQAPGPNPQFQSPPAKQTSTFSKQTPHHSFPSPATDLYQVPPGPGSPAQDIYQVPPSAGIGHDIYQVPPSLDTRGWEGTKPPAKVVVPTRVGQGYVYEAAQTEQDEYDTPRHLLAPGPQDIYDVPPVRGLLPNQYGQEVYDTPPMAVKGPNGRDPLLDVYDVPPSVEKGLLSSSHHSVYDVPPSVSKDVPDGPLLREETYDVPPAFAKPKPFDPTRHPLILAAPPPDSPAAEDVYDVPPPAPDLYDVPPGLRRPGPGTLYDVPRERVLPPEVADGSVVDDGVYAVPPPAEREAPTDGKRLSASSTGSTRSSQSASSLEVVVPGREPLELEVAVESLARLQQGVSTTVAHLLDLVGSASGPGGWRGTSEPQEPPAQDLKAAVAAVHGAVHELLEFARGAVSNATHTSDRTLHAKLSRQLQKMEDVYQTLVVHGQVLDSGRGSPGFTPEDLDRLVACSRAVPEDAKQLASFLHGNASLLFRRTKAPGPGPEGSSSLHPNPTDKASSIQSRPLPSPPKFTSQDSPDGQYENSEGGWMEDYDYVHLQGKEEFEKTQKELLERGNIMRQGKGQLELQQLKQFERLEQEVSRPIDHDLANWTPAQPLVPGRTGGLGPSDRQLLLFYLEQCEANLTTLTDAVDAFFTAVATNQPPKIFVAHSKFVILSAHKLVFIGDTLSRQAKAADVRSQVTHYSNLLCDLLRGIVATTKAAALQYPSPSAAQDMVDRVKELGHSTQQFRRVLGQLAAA

[2] = molecular target: T2, α-parvin (not stated (mouse and non-mouse baits used)) (UniProt Q9EPC1)
T2 sequence: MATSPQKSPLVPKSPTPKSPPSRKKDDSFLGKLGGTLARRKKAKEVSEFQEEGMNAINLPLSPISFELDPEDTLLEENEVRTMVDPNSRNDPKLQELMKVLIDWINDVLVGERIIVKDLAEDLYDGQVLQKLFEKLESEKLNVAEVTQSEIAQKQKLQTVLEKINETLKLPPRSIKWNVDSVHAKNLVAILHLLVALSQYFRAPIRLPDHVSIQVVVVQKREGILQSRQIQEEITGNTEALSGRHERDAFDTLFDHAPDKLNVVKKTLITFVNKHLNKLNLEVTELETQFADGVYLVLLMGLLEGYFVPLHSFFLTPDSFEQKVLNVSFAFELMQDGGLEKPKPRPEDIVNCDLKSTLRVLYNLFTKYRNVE

[3] = molecular target: paxillin (not stated (mouse and non-mouse baits used)) (UniProt Q8VI36)
[4] = molecular target: T3, GIT1 (not stated (mouse and non-mouse baits used)) (UniProt Q68FF6)
T3 sequence: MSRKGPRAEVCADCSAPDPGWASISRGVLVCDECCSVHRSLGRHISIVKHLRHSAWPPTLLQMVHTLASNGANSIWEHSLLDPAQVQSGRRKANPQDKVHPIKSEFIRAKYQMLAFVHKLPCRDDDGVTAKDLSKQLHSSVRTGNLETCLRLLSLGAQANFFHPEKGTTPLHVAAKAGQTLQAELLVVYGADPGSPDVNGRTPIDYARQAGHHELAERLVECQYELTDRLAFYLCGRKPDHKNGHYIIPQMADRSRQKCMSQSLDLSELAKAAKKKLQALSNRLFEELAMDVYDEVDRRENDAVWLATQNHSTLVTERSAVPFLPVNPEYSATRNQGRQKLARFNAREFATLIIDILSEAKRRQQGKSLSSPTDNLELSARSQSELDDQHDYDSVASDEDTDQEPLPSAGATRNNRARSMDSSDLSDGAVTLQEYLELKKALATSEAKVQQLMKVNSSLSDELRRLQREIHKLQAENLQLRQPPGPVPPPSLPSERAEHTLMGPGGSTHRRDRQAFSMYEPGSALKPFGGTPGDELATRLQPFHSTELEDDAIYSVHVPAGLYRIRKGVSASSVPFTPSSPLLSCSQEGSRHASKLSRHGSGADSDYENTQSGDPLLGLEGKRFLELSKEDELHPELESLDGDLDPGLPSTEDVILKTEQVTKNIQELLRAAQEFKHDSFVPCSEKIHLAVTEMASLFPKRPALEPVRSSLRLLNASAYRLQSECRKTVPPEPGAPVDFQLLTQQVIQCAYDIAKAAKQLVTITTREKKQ

[5] = molecular target: T4, ILK (not stated (mouse and non-mouse baits used)) (UniProt O55222)
T4 sequence: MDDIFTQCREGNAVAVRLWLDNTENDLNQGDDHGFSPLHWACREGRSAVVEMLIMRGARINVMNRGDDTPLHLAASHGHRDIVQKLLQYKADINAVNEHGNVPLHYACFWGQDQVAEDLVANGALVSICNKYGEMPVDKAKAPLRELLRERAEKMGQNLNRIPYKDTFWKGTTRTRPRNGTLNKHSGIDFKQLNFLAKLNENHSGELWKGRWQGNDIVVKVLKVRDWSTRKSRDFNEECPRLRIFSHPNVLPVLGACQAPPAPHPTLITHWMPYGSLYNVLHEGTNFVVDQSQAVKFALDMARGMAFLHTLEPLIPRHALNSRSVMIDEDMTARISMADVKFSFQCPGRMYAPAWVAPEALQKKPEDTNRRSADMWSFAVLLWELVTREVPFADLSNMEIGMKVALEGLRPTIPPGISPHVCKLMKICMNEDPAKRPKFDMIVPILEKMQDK

[6] = molecular target: PINCH (not stated (mouse and non-mouse baits used)) (UniProt Q99JW4)

Substance	binding [1]	binding [3]	other results
PINCH (from UniProt Q99JW4 1-325)	–	–	binding [2]: binds
Peak1 (from UniProt Q69Z38 1-1735)	binds	binds	–
erbin (from UniProt Q80TH2 1-1402)	–	–	binding [4]: no binding

The next lines start with results.

binding [1]	binding [3]	Substance	other results
binds	–	FAK (from UniProt P34152 1-1052)	–
binds	–	paxillin (from UniProt Q8VI36 1-591)	–
–	binds	scribble (from UniProt Q80U72 1-1665)	binding [4]: binds
–	binds	talin-1 (from UniProt P26039 1-2541)	binding [2]: binds; binding [5]: binds; binding [6]: binds
